Assay results reported in patent publication US12673975B2, “Cyclic peptide, cell scaffold material, cell separating material, and medium” (FUJIFILM Corporation, priority 2019, dated 2026).
At least one peptide structure holds a part that was inferred or is arguable (an end, a ring closure or a residue). Some of these results come from one statement about several compounds together. Starred links: 1 amine or outer side, 2 acyl side, 3 side chain; linkers in the order of their positions; H or OH if unused. Positions of bridges follow the written chain, without caps; N, C: chain ends. Non-standard residues stand in square brackets, D forms with d. Residues, ends and D or L forms follow the SMILES beside them. hTyr = N[C@@H](CCc1ccc(O)cc1)C(=O)O; hCys = N[C@@H](CCS)C(=O)O; hSer = N[C@@H](CCO)C(=O)O; Dab = NCC[C@H](N)C(=O)O; Dap = NC[C@H](N)C(=O)O; X1 = O=C(C[*:2])[*:1]; X2 = O=C(C[*:1])[*:2]

Protein sequences, listed by entry. Tags and fused reporters are not part of them. Residues count along the entry.
UniProt P06756, 31-1048: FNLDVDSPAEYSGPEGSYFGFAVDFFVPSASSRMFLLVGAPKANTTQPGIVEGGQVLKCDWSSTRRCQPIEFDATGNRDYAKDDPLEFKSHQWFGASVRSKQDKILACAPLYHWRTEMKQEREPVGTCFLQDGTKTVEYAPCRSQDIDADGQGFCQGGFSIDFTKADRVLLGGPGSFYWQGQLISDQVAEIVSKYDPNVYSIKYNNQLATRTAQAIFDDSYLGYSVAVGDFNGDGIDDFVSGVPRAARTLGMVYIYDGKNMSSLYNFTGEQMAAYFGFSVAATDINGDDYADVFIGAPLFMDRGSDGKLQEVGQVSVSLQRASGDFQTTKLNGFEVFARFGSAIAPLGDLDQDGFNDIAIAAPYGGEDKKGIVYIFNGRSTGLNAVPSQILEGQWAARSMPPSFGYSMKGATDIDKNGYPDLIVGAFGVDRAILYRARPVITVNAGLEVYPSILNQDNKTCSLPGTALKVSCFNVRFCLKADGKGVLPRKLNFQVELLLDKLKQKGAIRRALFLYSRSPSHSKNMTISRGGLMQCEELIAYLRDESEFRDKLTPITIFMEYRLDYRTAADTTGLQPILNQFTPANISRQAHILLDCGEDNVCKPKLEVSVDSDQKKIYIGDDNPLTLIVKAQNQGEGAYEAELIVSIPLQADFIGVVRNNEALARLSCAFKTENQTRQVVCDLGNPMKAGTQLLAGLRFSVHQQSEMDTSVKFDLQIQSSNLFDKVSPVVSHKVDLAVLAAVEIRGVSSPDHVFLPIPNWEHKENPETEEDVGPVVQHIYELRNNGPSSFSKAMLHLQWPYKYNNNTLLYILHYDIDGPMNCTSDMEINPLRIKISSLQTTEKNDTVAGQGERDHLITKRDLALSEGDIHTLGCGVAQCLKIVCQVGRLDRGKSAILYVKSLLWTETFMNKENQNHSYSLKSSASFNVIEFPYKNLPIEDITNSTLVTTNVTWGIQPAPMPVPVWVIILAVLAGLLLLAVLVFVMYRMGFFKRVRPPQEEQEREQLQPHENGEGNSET
UniProt P18084, 24-799: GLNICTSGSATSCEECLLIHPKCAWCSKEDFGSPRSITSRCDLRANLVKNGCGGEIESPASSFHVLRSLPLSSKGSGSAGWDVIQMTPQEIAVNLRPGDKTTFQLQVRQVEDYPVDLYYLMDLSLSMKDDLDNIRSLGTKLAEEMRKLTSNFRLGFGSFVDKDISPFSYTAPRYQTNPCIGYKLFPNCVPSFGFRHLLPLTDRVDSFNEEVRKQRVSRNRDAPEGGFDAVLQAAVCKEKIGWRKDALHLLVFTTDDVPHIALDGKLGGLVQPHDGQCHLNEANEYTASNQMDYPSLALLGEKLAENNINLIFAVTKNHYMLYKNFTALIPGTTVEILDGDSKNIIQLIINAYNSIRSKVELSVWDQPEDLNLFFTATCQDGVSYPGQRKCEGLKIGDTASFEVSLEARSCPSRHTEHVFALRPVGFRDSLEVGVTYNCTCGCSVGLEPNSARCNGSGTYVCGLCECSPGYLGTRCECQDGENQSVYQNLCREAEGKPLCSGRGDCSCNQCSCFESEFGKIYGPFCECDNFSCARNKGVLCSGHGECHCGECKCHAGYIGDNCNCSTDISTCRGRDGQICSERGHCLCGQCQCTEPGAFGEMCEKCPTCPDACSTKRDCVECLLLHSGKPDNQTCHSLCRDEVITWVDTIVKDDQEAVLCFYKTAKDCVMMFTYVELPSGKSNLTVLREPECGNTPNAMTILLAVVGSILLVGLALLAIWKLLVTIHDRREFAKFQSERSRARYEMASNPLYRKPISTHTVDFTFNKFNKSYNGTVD

Legend:
[1] = molecular target: human integrin αvβ5 (Homo sapiens, UniProt P06756+P18084); experiment: Evaluation of integrin binding property (surface plasmon resonance, Biacore 3000, immobilized cyclic peptide); conditions: SPR, 25° C., HEPES buffer with 5 mM magnesium chloride, integrin 30-1,000 nM; read-out: Performance evaluation: Binding activity (dissociation constant between the cyclic peptide and human integrin αvβ5)
Method: A commercially available CMS (a carboxymethyl dextran introduction type, manufactured by GE Healthcare) sensor chip was set in Biacore 3000, which is a surface plasmon resonance apparatus manufactured by GE Healthcare, the sensor was stabilized at a flow rate of 10 μL/min of a HEPES (4-(2-hydroxyethyl)-1-piperazineethanesulfonic acid) buffer solution (20 mM HEPES-HCl, 150 mM NaCl, pH 7.4) for surface plasmon resonance (SPR), and 70 μL of a mixed aqueous solution of 0.2 M 1-(3-dimethylaminopropyl)-3-ethylcarbodiimide (EDC) and 0.04 M N-hydroxysuccinimide (NHS) was added thereto. Here, the concentration unit M represents mol/L, and the same applies hereinafter. Then, 20 μL of the sample solution of each of the above cyclic peptides diluted to 0.2 g/L with the HEPES buffer solution was supplied to the sensor chip, blocking treatment was subsequently carried out with an ethanolamine solution, and washing was carried out with a sodium hydroxide aqueous solution, whereby immobilization was carried out. However, only for the cyclic peptides 125, 126, and 127, in which the number of lysine residues having an amino group as the immobilizing functional group was zero, the amount of the sample solution to be supplied to the sensor chip was set to 500 μL instead of 20 μL. […]

[2] = system: iPS cell (01434 clone); experiment: Evaluation of iPS cell culture performance on γ ray irradiated cell scaffold material; assay type: cell-based; parameters: key to Evaluation result of culture performance: A: Proliferation of iPS cells was observed.; B: No proliferation of iPS cells was observed; conditions: for Evaluation result of culture performance: peptide immobilized on CMD coating well, γ ray 25 kGy, iPS cells cultured three days in mTeSR1; for iPS cell proliferation on cell scaffold material (in words): γ ray sterilized cell scaffold material containing the peptide
[3] = Evaluation of molecule stability (alkali treatment, residual rate by LC/MS); assay type: physicochemical; conditions: 15° C., 3 hours
Method: The molecule stability of the cyclic peptide was evaluated by analyzing the alkali-treated cyclic peptide aqueous solution by liquid chromatography mass spectroscopy (LC/MS).
The alkali treatment was carried out by the following method. A 500 μM cyclic peptide aqueous solution was prepared, an equivalent of 1 M sodium hydroxide aqueous solution was added to this aqueous solution, and the resultant mixture was incubated at 15° C. for 3 hours to obtain an alkali-treated cyclic peptide aqueous solution. The cyclic peptide residual rate was calculated by setting the total area of all peaks of the cyclic peptide before alkali treatment in LC/MS to 100% and determining the proportion of the total area of all peaks in LC/MS of the alkali-treated cyclic peptide aqueous solution, and the molecule stability was evaluated according to the following evaluation standards. It is preferable that the evaluation result satisfies the evaluation standard A, B, or C. […]

Compound	Kd [1]	Evaluation result of culture performance [2]	iPS cell proliferation on cell scaffold material (in words) [2]	residual rate value in the evaluation of molecule stability [3]
C[C@H](NC(=O)[C@@H]1CCNC(=O)CSCC[C@H](NC(=O)CNC(=O)[C@H](CCCCN)NC(=O)[C@H](CCCCN)NC(=O)[C@@H](N)CCCCN)C(=O)N[C@@H](CCc2ccc(O)cc2)C(=O)N2CCC[C@H]2C(=O)N[C@@H](CCCNC(=N)N)C(=O)NCC(=O)N[C@@H](CC(=O)O)C(=O)N[C@@H]([C@@H](C)O)C(=O)N[C@@H](Cc2ccccc2)C(=O)N[C@@H](CCCNC(=N)N)C(=O)N1)C(=O)O [Cyclic peptide 68, KKKG-(Hcy)-(HmY)-PRGDTFR(Dab(acetyl))A] (H-KKKG[hCys][hTyr]PRGDTFR[Dab]A-OH; linker 5-14 via X2)	< 50 nM	–	–	–
CC[C@H](C)[C@@H]1NC(=O)[C@@H](NC(=O)CNC(=O)[C@H](CCCCN)NC(=O)[C@H](CCCCN)NC(=O)[C@@H](N)CCCCN)CCSCC(=O)NCC[C@@H](C(=O)N[C@@H](C)C(=O)O)NC(=O)[C@H](CCCNC(=N)N)NC(=O)[C@H](Cc2ccccc2)NC(=O)[C@H](CCO)NC(=O)[C@H](CC(=O)O)NC(=O)CNC(=O)[C@H](CCCNC(=N)N)NC(=O)[C@@H]2CCCN2C1=O [Cyclic peptide 73, KKKG-(Hcy)-IPRGD-(HmS)-FR(Dab(acetyl))A] (H-KKKG[hCys]IPRGD[hSer]FR[Dab]A-OH; linker 5-14 via X2)	50 to 100 nM	–	–	–
CC[C@H](C)[C@@H]1NC(=O)[C@@H](NC(=O)[C@H](C)NC(=O)[C@H](CCCCN)NC(=O)[C@H](CCCCN)NC(=O)[C@@H](N)CCCCN)CCSCC(=O)NCC[C@@H](C(=O)N[C@@H](C)C(=O)O)NC(=O)[C@H](C)NC(=O)[C@H](Cc2ccccc2)NC(=O)[C@H](CO)NC(=O)[C@H](CC(=O)O)NC(=O)CNC(=O)[C@H](CCCNC(=N)N)NC(=O)[C@@H]2CCCN2C1=O [Cyclic peptide 92, KKKA-(Hcy)-IPRGDSFA(Dab(acetyl))A] (H-KKKA[hCys]IPRGDSFA[Dab]A-OH; linker 5-14 via X2)	–	A	iPS cells proliferate	–
C[C@H](NC(=O)[C@H](CCCCN)NC(=O)[C@H](CCCCN)NC(=O)[C@@H](N)CCCCN)C(=O)N[C@H]1CNC(=O)CSC[C@@H](C(=O)O)NC(=O)[C@H](CCCNC(=N)N)NC(=O)[C@H](Cc2ccc(O)cc2)NC(=O)[C@H](CC(N)=O)NC(=O)[C@H](CC(=O)O)NC(=O)CNC(=O)[C@H](CCCNC(=N)N)NC(=O)[C@@H]2CCCN2C(=O)[C@H](CCC(=O)O)NC1=O [Cyclic peptide 166, KKKA(Dap(acetyl))EPRGDNYR(C), reference compound] (H-KKKA[Dap]EPRGDNYRC-OH; linker 5-14 via X1)	–	–	–	less than 25%
N=C(N)NCCC[C@@H]1NC(=O)[C@H](Cc2ccc(O)cc2)NC(=O)[C@H](CC(N)=O)NC(=O)[C@H](CC(=O)O)NC(=O)CNC(=O)[C@H](CCCNC(=N)N)NC(=O)[C@@H]2CCCN2C(=O)[C@H](CCC(=O)O)NC(=O)[C@@H](NC(=O)[C@H](CCCCN)NC(=O)[C@H](CCCCN)NC(=O)[C@@H](N)CCCCN)CNC(=O)CSC[C@@H](C(=O)O)NC1=O [Cyclic peptide 167, KKK(Dap(acetyl))EPRGDNYR(C), reference compound] (H-KKK[Dap]EPRGDNYRC-OH; linker 4-13 via X1)	–	B	iPS cells do not proliferate	less than 25%
